Values from PubChem BioAssay AID686938 (Drosophila RNAi Screening Center, 2013)
The deposit covers about 23,000 reagents; this is a random part of those with a known target gene and a result. Over the whole deposit, 75 (0.33%) got an active call. 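Raw plate signals without normalisation; calls rest on plate z-scores that were not deposited; ratio present for only 364 wells.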 Names joined by + are all predicted targets of the reagent. Not given: the dose of the treatment.

Purpose: 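Looking for CRAC channel components and the factors controlling them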 (primary screen)
Cells: Drosophila S2R+ cells
Reagent: long dsRNA against Drosophila genes, about 0.25 µg dsRNA per well, roughly 10,000 cells
Timing: 5 days of knock-down before the calcium assay
Conditions: thapsigargin (SERCA pump blocker) to empty calcium stores; entry signal taken 4 min after adding it
Measured: 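Per-well fluo-4 fluorescence in two replicates, unnormalised, measured in resting cells and 4 min after store depletion by the SERCA blocker thapsigargin; ratio of the two present in few wells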
Scale: calcium entry signal: higher = stronger calcium signal after store depletion; entry to resting ratio: higher = more calcium entry relative to resting level; resting calcium signal: higher = higher resting calcium signal
Hit rule: 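Hit if the duplicate-averaged plate z-score for entry over resting signal is under −3; wells with weak total dye signal (Fmax z < −2) or more than 5 off-targets removed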
Meaning of the calls: active = strongly reduced calcium entry; inactive = no strong reduction

| calcium entry signal, replicate 1 (fluorescence units) | calcium entry signal, replicate 2 (fluorescence units) | entry to resting ratio | resting calcium signal, replicate 1 (fluorescence units) | resting calcium signal, replicate 2 (fluorescence units) | Outcome | gene knocked down | amplicon |
| --- | --- | --- | --- | --- | --- | --- | --- |
| 4.28e7 | – | – | 2.23e7 | – | inactive | Tsp42Ep (GeneID 35626) | DRSC06871 |
| 3.51e7 | 5.16e7 | – | 1.83e7 | 2.48e7 | inactive | CG33095 (GeneID 43012) | DRSC14441 |
| 2.92e7 | 4.19e7 | – | 1.46e7 | 1.80e7 | inactive | IntS10 (GeneID 38444) | DRSC08173 |
| 3.83e7 | 4.73e7 | – | 1.85e7 | 2.04e7 | inactive | CG6938 (GeneID 39362) | DRSC10752 |
| 4.74e7 | 7.68e7 | – | 2.08e7 | 3.32e7 | inactive | icln (GeneID 36997) | DRSC07630 |
| 5.19e7 | 6.67e7 | – | 2.31e7 | 2.64e7 | inactive | dbo (GeneID 53556) | DRSC11339 |
| 2.69e7 | 4.60e7 | – | 1.39e7 | 1.95e7 | inactive | mil (GeneID 43343) | DRSC15696 |
| 3.49e7 | 4.92e7 | – | 1.93e7 | 2.12e7 | inactive | CG14431 (GeneID 31639) | DRSC17925 |
| 3.54e7 | 4.31e7 | – | 2.15e7 | 1.89e7 | inactive | CG14431 (GeneID 31639) | DRSC17926 |
| 3.32e7 | 4.64e7 | – | 1.44e7 | 2.00e7 | inactive | ttv (GeneID 36614) | DRSC07709 |
| 3.17e7 | 3.14e7 | – | 1.56e7 | 1.49e7 | inactive | CG31808 (GeneID 10178782) | DRSC22962 |
| 5.24e7 | 4.08e7 | – | 2.54e7 | 1.85e7 | inactive | zfh1 (GeneID 43650) | DRSC14014 |
| 3.81e7 | 3.81e7 | – | 1.99e7 | 2.04e7 | inactive | zfh1 (GeneID 43650) | DRSC17098 |
| 3.86e7 | 4.83e7 | – | 5.59e7 | 1.91e7 | inactive | CG4465 (GeneID 42374) | DRSC15584 |
| 3.27e7 | 2.77e7 | – | 1.77e7 | 1.42e7 | inactive | Gr36b (GeneID 117487) | DRSC21637 |
| 3.50e7 | 4.34e7 | – | 1.98e7 | 2.00e7 | inactive | CG6607 (GeneID 42925) | DRSC16073 |
| 4.75e7 | 4.04e7 | – | 2.09e7 | 1.96e7 | inactive | mahe (GeneID 31707) | DRSC17755 |
| 3.05e7 | 2.59e7 | – | 1.49e7 | 1.24e7 | inactive | vir (GeneID 47869) | DRSC04377 |
| 3.44e7 | 4.09e7 | – | 1.71e7 | 1.95e7 | inactive | CG8852 (GeneID 33577) | DRSC00719 |
| 2.54e7 | 4.39e7 | – | 1.46e7 | 2.01e7 | inactive | CG31784 (GeneID 318939) | DRSC01574 |
| 1.55e7 | 2.82e7 | – | 7.49e6 | 1.24e7 | inactive | CG12607 (GeneID 38547) | DRSC08287 |
| 5.13e7 | 3.43e7 | – | 2.59e7 | 1.65e7 | inactive | CG5326 (GeneID 42655) | DRSC13568 |
| 4.71e7 | 3.05e7 | – | 1.97e7 | 1.36e7 | inactive | CG5326 (GeneID 42655) | DRSC15770 |
| 3.82e7 | 4.63e7 | – | 1.91e7 | 1.78e7 | inactive | CG7460 (GeneID 39973) | DRSC10850 |
| 2.72e7 | 3.04e7 | – | 1.41e7 | 1.50e7 | inactive | Nhe3 (GeneID 33939) | DRSC03380 |
| 3.64e7 | 3.72e7 | – | 1.64e7 | 1.95e7 | inactive | CG32189 (GeneID 317902) | DRSC09511 |
| 3.53e7 | 4.58e7 | – | 1.58e7 | 5.54e7 | inactive | EMC2B + EMC2A | DRSC15241 |
| 3.78e7 | 5.56e7 | – | 1.79e7 | 6.23e7 | inactive | ea (GeneID 41858) | DRSC16939 |
| 5.12e7 | 3.94e7 | – | 2.26e7 | 1.80e7 | inactive | CadN (GeneID 35070) | DRSC03286 |
| 4.63e7 | 4.82e7 | – | 2.20e7 | 2.01e7 | inactive | CG14621 (GeneID 33128) | DRSC20635 |
| 5.42e7 | 4.37e7 | 2.1 | 2.56e7 | 1.90e7 | inactive | Seipin (GeneID 31245) | DRSC18654 |
| 2.66e7 | 3.07e7 | – | 1.37e7 | 1.47e7 | inactive | Ir25a (GeneID 33683) | DRSC00462 |
| 2.92e7 | 3.97e7 | – | 1.24e7 | 1.78e7 | inactive | Polr3C (GeneID 41542) | DRSC14490 |
| 2.45e7 | 3.41e7 | – | 1.37e7 | 1.48e7 | inactive | CG4456 + Hsp22 | DRSC11187 |
| 5.33e7 | 4.72e7 | – | 3.38e7 | 1.94e7 | inactive | CG4456 + Hsp22 | DRSC11192 |

Quoted from above (6 entries):
| calcium entry signal, replicate 1 (fluorescence units) | calcium entry signal, replicate 2 (fluorescence units) | entry to resting ratio | resting calcium signal, replicate 1 (fluorescence units) | resting calcium signal, replicate 2 (fluorescence units) | Outcome | gene knocked down | amplicon |
| --- | --- | --- | --- | --- | --- | --- | --- |
| 1.55e7 | 2.82e7 | – | 7.49e6 | 1.24e7 | inactive | CG12607 (GeneID 38547) | DRSC08287 |
| 5.13e7 | 3.43e7 | – | 2.59e7 | 1.65e7 | inactive | CG5326 (GeneID 42655) | DRSC13568 |
| 4.71e7 | 3.05e7 | – | 1.97e7 | 1.36e7 | inactive | CG5326 (GeneID 42655) | DRSC15770 |
| 3.82e7 | 4.63e7 | – | 1.91e7 | 1.78e7 | inactive | CG7460 (GeneID 39973) | DRSC10850 |
| 2.72e7 | 3.04e7 | – | 1.41e7 | 1.50e7 | inactive | Nhe3 (GeneID 33939) | DRSC03380 |
| 3.64e7 | 3.72e7 | – | 1.64e7 | 1.95e7 | inactive | CG32189 (GeneID 317902) | DRSC09511 |

More results follow.
| calcium entry signal, replicate 1 (fluorescence units) | calcium entry signal, replicate 2 (fluorescence units) | entry to resting ratio | resting calcium signal, replicate 1 (fluorescence units) | resting calcium signal, replicate 2 (fluorescence units) | Outcome | gene knocked down | amplicon |
| --- | --- | --- | --- | --- | --- | --- | --- |
| 3.39e7 | 4.52e7 | – | 1.56e7 | 1.96e7 | inactive | PlexA (GeneID 43832) | DRSC17220 |
| 3.90e7 | 5.53e7 | – | 1.94e7 | 2.35e7 | inactive | Gr58b (GeneID 37502) | DRSC04140 |
| 2.88e7 | 4.18e7 | – | 1.35e7 | 1.84e7 | inactive | Gprk1 (GeneID 3355013) | DRSC20732 |
| 3.86e7 | 2.65e7 | – | 1.54e7 | 1.34e7 | inactive | Gprk1 (GeneID 3355013) | DRSC20916 |
| 4.10e7 | 4.67e7 | – | 4.52e7 | 2.06e7 | inactive | CG7695 (GeneID 42234) | DRSC16289 |
| 1.83e7 | 2.14e7 | – | 1.02e7 | 1.21e7 | inactive | Rbm13 (GeneID 31818) | DRSC17749 |
| 4.58e7 | 3.41e7 | – | 2.04e7 | 1.43e7 | inactive | CG17036 (GeneID 34679) | DRSC02564 |
| 2.93e7 | 3.19e7 | – | 1.36e7 | 1.36e7 | inactive | Mob3 (GeneID 34372) | DRSC02791 |
| 4.20e7 | 4.88e7 | – | 2.13e7 | 2.12e7 | inactive | Alp12 (GeneID 35218) | DRSC02515 |
| 4.27e7 | 5.83e7 | – | 1.88e7 | 2.41e7 | inactive | CG2964 (GeneID 33475) | DRSC00554 |
| 4.83e7 | – | – | 2.52e7 | – | inactive | bdl (GeneID 33635) | DRSC00271 |
| 1.86e7 | 1.86e7 | – | 7.13e7 | 1.08e7 | inactive | Hsc70-4 (GeneID 41840) | DRSC16711 |
| 1.75e7 | 1.87e7 | – | 1.21e7 | 1.13e7 | inactive | Rpn7 (GeneID 42641) | DRSC16841 |
| 4.29e7 | 6.54e7 | – | 1.95e7 | 2.60e7 | inactive | CG15715 (GeneID 39726) | DRSC10216 |
| 4.61e7 | 3.44e7 | – | 2.18e7 | 1.61e7 | inactive | Osi10b (GeneID 40764) | DRSC12279 |
| 3.92e7 | 5.21e7 | – | 1.91e7 | 2.24e7 | inactive | CG7579 (GeneID 39714) | DRSC10885 |
| 3.50e7 | 4.36e7 | – | 5.91e7 | 1.80e7 | inactive | hdly (GeneID 42478) | DRSC15849 |
| 3.54e7 | 3.91e7 | – | 1.67e7 | 1.73e7 | inactive | CG33181 (GeneID 318916) | DRSC17971 |
| 3.33e7 | 6.24e7 | – | 1.76e7 | 3.05e7 | inactive | CG33181 (GeneID 318916) | DRSC22376 |
| 2.47e7 | 3.27e7 | – | 1.38e7 | 1.63e7 | inactive | Drsl5 (GeneID 38409) | DRSC08159 |
| 3.14e7 | 4.87e7 | – | 1.75e7 | 1.87e7 | inactive | CG31288 (GeneID 318664) | DRSC14667 |
| 3.38e7 | 2.72e7 | – | 2.50e7 | 1.13e7 | inactive | Pi3K68D (GeneID 39329) | DRSC11253 |
| 4.36e7 | 3.15e7 | – | 1.85e7 | 1.58e7 | inactive | Yip1d1 (GeneID 34696) | DRSC02166 |
